The values that follow come from paper PMC11481398.

The chains behind the UniProt entries cited, without tags or fusion partners. Where a name states a change or a piece, a line headed by the entry shows the natural chain unless it says otherwise.
UniProt Q00534: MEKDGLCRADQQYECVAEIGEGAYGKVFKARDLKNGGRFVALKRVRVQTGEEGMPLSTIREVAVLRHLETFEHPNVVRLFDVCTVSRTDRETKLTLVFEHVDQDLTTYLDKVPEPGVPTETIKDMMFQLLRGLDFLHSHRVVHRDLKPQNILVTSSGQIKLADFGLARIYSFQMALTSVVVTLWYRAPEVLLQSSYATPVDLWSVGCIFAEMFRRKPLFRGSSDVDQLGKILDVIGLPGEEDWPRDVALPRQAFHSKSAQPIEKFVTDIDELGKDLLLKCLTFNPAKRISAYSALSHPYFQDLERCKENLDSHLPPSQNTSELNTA
UniProt Q13619: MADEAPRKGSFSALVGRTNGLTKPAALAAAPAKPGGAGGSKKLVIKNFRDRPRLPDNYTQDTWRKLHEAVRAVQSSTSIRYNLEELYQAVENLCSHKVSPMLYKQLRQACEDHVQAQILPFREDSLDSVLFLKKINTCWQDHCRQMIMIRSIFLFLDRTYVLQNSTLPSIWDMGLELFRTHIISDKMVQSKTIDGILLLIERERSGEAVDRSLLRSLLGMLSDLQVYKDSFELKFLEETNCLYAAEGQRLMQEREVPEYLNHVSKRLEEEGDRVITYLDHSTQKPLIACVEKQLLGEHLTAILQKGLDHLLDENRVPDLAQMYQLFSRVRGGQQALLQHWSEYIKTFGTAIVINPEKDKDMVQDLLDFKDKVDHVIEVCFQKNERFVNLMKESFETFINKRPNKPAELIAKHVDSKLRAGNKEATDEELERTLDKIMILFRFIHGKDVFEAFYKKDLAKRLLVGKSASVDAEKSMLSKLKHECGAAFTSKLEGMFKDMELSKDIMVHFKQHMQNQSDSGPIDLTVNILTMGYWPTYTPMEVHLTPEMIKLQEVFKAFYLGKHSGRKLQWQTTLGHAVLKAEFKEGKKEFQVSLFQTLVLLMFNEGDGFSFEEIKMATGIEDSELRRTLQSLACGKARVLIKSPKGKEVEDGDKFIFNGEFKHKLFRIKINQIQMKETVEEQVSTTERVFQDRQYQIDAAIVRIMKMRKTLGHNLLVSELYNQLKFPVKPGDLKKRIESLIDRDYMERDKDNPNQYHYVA

These are yes or no findings as the source states them, for the method shown. In cells and extracts the contact can be indirect. Binding can be weak; no strength is given.

This assay concerns the target CDK6 xLIR domain mutant (96-101 amino acid mutation) (UniProt Q00534). Description: co-IP; H69AR-xLIRmut cells (single clone after transfection with the CDK6 xLIR mutation plasmid) treated with PD (0.5 µM) and LEE (0.8 µM); western blot. A general note: In western blotting, separated proteins are transferred to a membrane and probed.

On to CUL4A (from UniProt Q13619 1-759), for which the binding entry was “binds”.
